PubChem BioAssay AID1224826 | NIAID | 2016
The whole screen tested about 17,000 reagents; this is an unselected part. About 1,110 of all reagents (6.6%) were called active. 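Active means lowered or raised reporter signal; replicate intensities are raw and not normalised per plate.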 Not all columns of the deposit are shown.

- Aim: 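Knock-downs that raise or lower Tnf reporter signal after endotoxin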 (primary screen)
- System: RAW264.7 G9 macrophages from mouse bearing reporters for p65 (GFP) and the Tnf promoter (mCherry)
- Reagents: siRNA pool against mouse genes, 100 nM
- Duration: 16 h of LPS stimulation, after 2 days of siRNA transfection
- Challenge: bacterial lipopolysaccharide (Salmonella minnesota R595), 10 ng/ml
- Read-out: 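Imaged Tnf reporter mCherry in nuclei, minus background, normalised per plate to the median and expressed as robust z-scores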
- Direction: Tnf reporter robust z-score: higher = stronger Tnf promoter reporter signal after LPS
- Rule for the call: 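Called active when robust z-score is at most -1.3, matching the median of the Tlr4 knock-down control, or over 3; control wells and wells with under 50 cells never active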
- Meaning of the calls: active = Tnf reporter clearly lowered or raised; inactive = no clear change in Tnf reporter

Against Tent4a (GeneID 210106), the entry reads Tnf reporter robust z-score 0.17; fewer than 50 cells in well enough cells in well; inactive.
Silencing of Ms4a5 (GeneID 269063) came out at: Tnf reporter robust z-score 0.5; fewer than 50 cells in well enough cells in well; inactive.
Depletion of Pdyn (GeneID 18610) resulted in: Tnf reporter robust z-score 0.48; fewer than 50 cells in well enough cells in well; inactive.
Wdfy3 (GeneID 72145) gave Tnf reporter robust z-score 1.56; fewer than 50 cells in well enough cells in well; inactive.
After knock-down of Or2ak5 (GeneID 258494), the screen gave Tnf reporter robust z-score 0.6; fewer than 50 cells in well enough cells in well; inactive.
For Foxj2 (GeneID 60611), the entry reads Tnf reporter robust z-score -0.21; fewer than 50 cells in well enough cells in well; inactive.
Icos (GeneID 54167) gave Tnf reporter robust z-score 1.45; fewer than 50 cells in well enough cells in well; inactive.

Already shown: an excerpt of the list.
Tent4a (GeneID 210106) | Tnf reporter robust z-score: 0.17; fewer than 50 cells in well: enough cells in well; outcome: inactive
Ms4a5 (GeneID 269063) | Tnf reporter robust z-score: 0.5; fewer than 50 cells in well: enough cells in well; outcome: inactive

The listing continues:
Depletion of Sde2 (GeneID 208768) came out at: Tnf reporter robust z-score -0.99; fewer than 50 cells in well enough cells in well; inactive.
Depletion of Nav3 (GeneID 260315) resulted in: fewer than 50 cells in well fewer than 50 cells per well; well left out of calls; inactive.
Against Rbp4 (GeneID 19662), the values are Tnf reporter robust z-score -0.43; fewer than 50 cells in well enough cells in well; inactive.
With knock-down of Dpysl2 (GeneID 12934), the screen gave Tnf reporter robust z-score -0.67; fewer than 50 cells in well enough cells in well; inactive.
For Mak (GeneID 17152), the entry reads fewer than 50 cells in well fewer than 50 cells per well; well left out of calls; inactive.
Strip2 (GeneID 320609) scored Tnf reporter robust z-score -0.86; fewer than 50 cells in well enough cells in well; inactive.
After knock-down of A830018L16Rik (GeneID 320492), the screen gave Tnf reporter robust z-score 0.35; fewer than 50 cells in well enough cells in well; inactive.
